## Library screening results

Protein sequences, listed by entry. Tags and fused reporters are not part of them.
UniProt E9BF75, entry or part of it: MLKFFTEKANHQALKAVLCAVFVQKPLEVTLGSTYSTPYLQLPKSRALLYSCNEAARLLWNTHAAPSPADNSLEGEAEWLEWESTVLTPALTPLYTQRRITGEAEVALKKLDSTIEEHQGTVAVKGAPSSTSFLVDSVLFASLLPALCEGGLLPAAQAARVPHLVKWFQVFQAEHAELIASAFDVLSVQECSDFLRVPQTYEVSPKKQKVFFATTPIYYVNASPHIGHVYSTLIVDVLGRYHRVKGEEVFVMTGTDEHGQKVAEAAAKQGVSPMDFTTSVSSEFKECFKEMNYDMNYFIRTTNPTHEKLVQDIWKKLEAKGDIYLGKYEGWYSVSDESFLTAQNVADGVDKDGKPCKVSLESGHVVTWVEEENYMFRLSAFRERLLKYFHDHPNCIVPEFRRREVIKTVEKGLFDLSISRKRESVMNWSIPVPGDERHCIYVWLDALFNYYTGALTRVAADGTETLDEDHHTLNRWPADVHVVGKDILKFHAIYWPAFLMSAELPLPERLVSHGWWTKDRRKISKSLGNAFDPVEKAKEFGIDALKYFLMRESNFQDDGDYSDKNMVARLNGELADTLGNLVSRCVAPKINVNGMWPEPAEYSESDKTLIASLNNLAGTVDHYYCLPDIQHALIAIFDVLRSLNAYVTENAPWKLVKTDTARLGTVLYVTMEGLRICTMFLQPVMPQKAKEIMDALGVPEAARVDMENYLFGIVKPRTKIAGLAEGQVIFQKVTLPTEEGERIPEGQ

A: 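Assay on Mycobacterium tuberculosis, filed only as a heat shock assay from Cornell; the read-out is not stated. The concentration is filed as 10 mM, unlikely as a test dose, so the dose is not known. Higher reads as stronger inhibition (inferred: compounds with an IC50 in retests scored well above the rest). About 69,000 compounds were tested under these conditions; 1.4% (about 930) showed 50% or more at least once.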
B: 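Whole-cell assay for inhibitors of Mycobacterium tuberculosis growth, labelled Cornell in the record; the read-out is not stated. The concentration is filed as 10 mM, unlikely as a test dose, so the dose is not known. Higher means stronger inhibition (inferred from two other growth screens of the library). Size under these conditions: about 53,000 compounds, about 900 of them at 50% or above in at least one test.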
C: 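Primary screen of methionyl-tRNA synthetase; the read-out is not stated. Target: Methionyl-tRNA synthetase (putative), Leishmania donovani (UniProt E9BF75). The test concentration is not given. Values are per cent inhibition. Size under these conditions: about 68,000 compounds, about 24 of them at 50% or above in at least one test.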

All values are in %.
The controls that fix the scale are not given in the record; negative values are as filed.
The compounds are a random part of those screened.
A dash means the value is not listed here; it may have been measured.

Compound	A	B	C
O=C1Nc2ccccc2C12CCCN(Cc1ccc3c(c1)OCCO3)C2 (stereo not shown)	-7.806%	5.273%	14.07%
CN(C)CCN1CCC2(CCCN(Cc3cccn3C)C2)C1=O.O=C(O)C(F)(F)F.O=C(O)C(F)(F)F (stereo not shown)	-14.42%	37.37%	-
O=C1NC2(CCCCC2)c2nnnn2-c2ccc(Br)cc21	-3.494%	-16.78%	10.97%
CCN1CCC2(CC1)CC(NC(=O)N(C)C)c1cc(C)ccc12 (stereo not shown)	-	-	17.99%
N#Cc1cccc(N2CC3(CCN(C(=O)NC4CC4)C3)CC2=O)c1 (stereo not shown)	8.926%	-21.06%	0.6536%
O=C(O)C(F)(F)F.O=S(=O)(c1cccs1)N1CCCn2cnc(CO)c2C1	-25.75%	19.79%	-
COCC(C)(C#N)NC(=O)c1cn(-c2cccc(Cl)c2F)nn1 (stereo not shown)	0.2485%	13.11%	9.065%
Cc1cnc(C)c(N2CCC(c3nnc(CN(C)C)n3C3CC3)CC2)n1	-15.26%	5.656%	5.618%
Cc1nnc(N2CCCC3(CN(Cc4ccc(F)cc4)CCO3)C2)o1 (stereo not shown)	-	-	1.875%
COc1ccc(CC(=O)NCCn2nc3ccccn3c2=O)cc1	-14.15%	9.511%	4.935%
O=C(CCn1cc(Cl)cn1)Nc1ncccn1	-2.614%	-	16.54%
CNC(=O)Cn1ccc2ccc(NC(=O)C(C)C)cc21	3.806%	6.028%	17.25%
CC(=O)N(Cc1ccsc1)c1ccccc1	-0.175%	9.151%	17.79%
COCCN1CCC(c2nc3ccc(-c4ccccc4)cn3n2)CC1.O=C(O)C(F)(F)F	-23.12%	-7.739%	-
CN(Cc1cccnc1)[C@@H]1CN(Cc2nccn2C)[C@@H]2CCCO[C@H]12	-	-	11.23%
CN1CC(=O)N(c2cccc(F)c2)CC12CCN(CCO)C2 (stereo not shown)	-	-	17.46%
O=C(c1ccccc1F)N1CC(c2nc(-c3ccc[nH]c3=O)no2)C1	11.45%	-27.85%	7.194%
O=C(O)C(F)(F)F.[H][C@]12CCN(C(=O)CC)CC[C@@]1([H])S(=O)(=O)CCN2Cc1cccc(C)n1	0.09301%	-0.6652%	-
[H][C@@]12CN(CCN(C)C)C[C@]1([H])OCCN2Cc1cnn(C)c1	-26.19%	-7.07%	-
Cl.O=C(NCc1ccccc1)C1=NOC2(CCNC2)C1 (stereo not shown)	-14.68%	-2.106%	-
O=C(NC1=NCCS1)C1CSCN1C(=O)C1CCCC1 (stereo not shown)	35.29%	-	23.01%
Cc1cc(C)c(CNC(=O)NCCOc2ccc3c(c2)CCC3)c(=O)[nH]1	-2.192%	-	7.143%
O=C(O)C(F)(F)F.c1ccc(N2CCOC3(CCCN(c4nncs4)C3)C2)nc1 (stereo not shown)	0.9336%	19.58%	-
CC(C)(O)c1cn(C2CCN(C(=O)CCC3CCCC3)CC2)nn1	17.07%	-3.08%	2.01%
CCC[C@@H]1CN(Cc2cc(OC)c3c(c2)OCO3)C[C@H]1C(=O)O	5.445%	-	15.24%
CC(CNC(=O)CCc1ccco1)N1CCc2sccc2C1 (stereo not shown)	5.828%	-	14.92%
Cc1cccc(C)c1NC(=O)c1cc(S(N)(=O)=O)c(C)o1	-9.922%	-7.521%	18.05%
Cc1cnn(CCNCC(O)COc2c(Cl)cccc2Cl)c1 (stereo not shown)	-15.59%	-	24.51%
CC(C)c1cc(NCc2csc(C(C)C)n2)nc(N)n1	-131.3%	-	4.532%
O=C(N[C@@H]1CN(Cc2ccccc2)C[C@@H]2CCCO[C@@H]21)C1CC1	-	-	14.64%
Cc1ccc(N2CC[C@H]3OCC[C@@]3(C(=O)NC(C)C)C2)nn1	-	-	22.86%
CCc1c(C(=O)N2CCC3(CC(=O)NC3=O)C2)csc1C (stereo not shown)	2.71%	30.33%	9.399%
O=C1CC(C(=O)Nc2nnc(-c3ccoc3)[nH]2)c2ccccc2N1 (stereo not shown)	-25.15%	1.679%	4.897%
COc1ccc(CNCc2c(C)nn(C)c2N2CCOCC2)cc1	-15.38%	-	20.83%
CN(C)CCOCc1nnc2n1CCN(Cc1ccco1)CC2	-	-	4.11%
c1csc(CN2CCCN(c3ncnc4[nH]ccc34)CC2)c1	-6.284%	28.3%	14.98%
Cc1nc[nH]c1CN1C[C@@H]2CC[C@H](C1)N(C(=O)CCc1cccnc1)C2	-	-	12.75%
O=C(O)C(F)(F)F.O=C(O)C(F)(F)F.c1ccc(CN2CCC3(CC2)CN(c2ccccn2)CCO3)nc1	-34.63%	39.54%	-
CCC(C)N(Cc1cnc(OC)nc1)Cc1ccsc1 (stereo not shown)	-16.92%	-2.85%	9.779%
CN1C(=O)C(C)(C)COc2cc(NS(=O)(=O)Cc3ccccc3)ccc21	-5.285%	-1.088%	3.448%
Cc1nccn1CCC(=O)N1CCCN(CCCc2ccccc2)CC1	14.59%	-	12.71%
Cc1ccc(-c2nc(C(=O)N3CCOCC3)cs2)c(C)c1	-5.396%	-	14.29%
O=C(Nc1nccs1)NC1CCN(Cc2ccccn2)CC1	3.769%	-	17.71%
Cc1cc(CN2CC[C@H]3C[C@H](C(=O)N4CCC(C)CC4)O[C@H]3C2)no1	-	-	16.5%
CCCc1nccn1-c1cccc(CN2CCCC2)c1	7.745%	-	12.27%
O=C(O)C(F)(F)F.[H][C@]12CCCC(N(C)Cc3cccs3)[C@@]1([H])CN(C(N)=O)C2 (stereo partly shown)	-23.15%	3.047%	-

The last 5 entries again:

Compound	A	B	C
Cc1ccc(-c2nc(C(=O)N3CCOCC3)cs2)c(C)c1	-5.396%	-	14.29%
O=C(Nc1nccs1)NC1CCN(Cc2ccccn2)CC1	3.769%	-	17.71%
Cc1cc(CN2CC[C@H]3C[C@H](C(=O)N4CCC(C)CC4)O[C@H]3C2)no1	-	-	16.5%
CCCc1nccn1-c1cccc(CN2CCCC2)c1	7.745%	-	12.27%
O=C(O)C(F)(F)F.[H][C@]12CCCC(N(C)Cc3cccs3)[C@@]1([H])CN(C(N)=O)C2 (stereo partly shown)	-23.15%	3.047%	-

Data taken from ChEMBL document CHEMBL3988442, “University of Dundee, Small-Polar-MMV Screening Library” (2021).